At least one compound was matched to its structure with a doubt left.
Tests used:
SPF C57BL/6 mice [1] = assay: Butyrate contained water for 8 weeks followed by total body irradiation; format: in vivo, mouse; details: versus control recipients
Procedure: Butyrate production was determined by Mass Spectrometry from Non-TBI controls versus LL-TBI survivors (FIG. 7A), Control Recipients versus Survivor Recipients from dirty cage sharing expt. as shown in FIG. 2A (FIG. 7B), Control Recipients versus Survivor Recipients from FMT in GF mice expt. as shown in FIG. 4A (FIG. 7C). FIG. 7D includes a schematic of butyrate treatment of 6-8 weeks SPF C57BL/6 mice. After 8 weeks of butyrate treatment, recipients received total body irradiation. Survival rates (FIG. 7E), clinical scores (FIG. 7F), body weight changes (FIG. 7G) and body temperatures (FIG. 7H) were monitored for 30 days post TBI. (Control Recipients, n=14; Butyrate Recipients, n=16).
It is well established that Clostridiales and Lachnospiraceae bacterial groups produce short chain fatty acids (SCFAs) via fermentation of dietary polysaccharides^32-34. SCFAs especially butyrate, which is the most commonly studied SCFA, are important substrates for maintaining intestinal epithelium and play a role in regulating immune system and inflammatory response. Increased abundance of Lachnospiraceae is expected to enhance the capability to produce SCFAs. To validate this hypothesis, the concentrations of lactate, propionate, isobutyrate and butyrate were detected in each individual Lachnospiraceae strain within the disclosed 23 stains pool. […]

SPF C57BL/6 mice [2] = assay: Acetate, butyrate or propionate supplemented water for 8 weeks followed by lethal dose TBI; format: in vivo, mouse; details: supplemented water 8 weeks
Source text: FIG. 11A is a schematic of short chain fatty acids (SCFAs) treatment. Survival rates (FIG. 11B) and clinical scores (FIG. 11C) were monitored for 30 days. Femurs and spleens were stained for H&E and quantified for BM cellularity and spleen EMH scores (FIG. 11D). White pulp (WP, black dash circles), red pulp (RP, area between black solid lines), and megakaryocytes (black arrows) are shown. […] Total CMP, GMP and MEP percentages of Lin^− cells are shown in the right histogram. Representative images are shown. Mucus layer is indicated by area between dash lines and crypt length is indicated by double-headed arrow. Mucus layer thickness and crypt length were quantified. Error bars show SEM, *p<0.05, **p<0.01, *** p<0.001 determined by log-rank (Mantel Cox) test (B), Mann-Whitney test for area under the curve (AUC) (C) and Student's t test (D, E, F).
SPF C57BL/6 mice were treated with acetate, butyrate or propionate supplemented water for 8 weeks respectively, followed by a lethal dose TBI (FIG. 11A). […] To examine the effect of propionate on the gastrointestinal system, Alcian blue and periodic acid-Schiff (AB/PAS) staining of all intracellular mucin glycoproteins within goblet cells was completed.

SMILES: CCCC(=O)O [butyrate]
- clinical scores, body weight and temperature changes (SPF C57BL/6 mice [1]): slightly lower
- protection (survival, clinical scores) (SPF C57BL/6 mice [2]): slight protection
